# Laboratory results from the supplement of paper PMC6658780.
# ± gives the standard deviation of the averaged measurements. Some of the results follow. Single values are uncertain here, since repeats match poorly.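 The A. baumannii clinical isolates were selected for resistance to the partner antibiotic; the screen seeks drugs that restore its effect. Background from coloured compounds is removed by subtracting the start-of-incubation reading.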
# Tested on: Acinetobacter baumannii NCTC-13301
# Assay: percent growth inhibition of drug alone vs DMSO control; higher = more growth inhibition
# Details: antibiotic (0.125x MIC): none (0.1% DMSO); 7 µM
# Protocol: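 Prestwick drugs tested at 20 uM and 7 uM with an antibiotic at 0.125x MIC (16 mg/L when MIC >128 mg/L) in cation-adjusted Mueller-Hinton broth, 384-well plates, duplicate runs on different days. Percent growth inhibition was computed from OD600 (24 h minus 0 h) relative to DMSO-only wells. Drug + 0.1% DMSO (no antibiotic) wells are also given. Only hits (max corrected inhibition > mean + 3SD) are listed. A. baumannii: NCTC-13301 was used for MEM/CIP/GEN/TGC and WP-487 for colistin. Duplicates with colistin are strongly discordant (run 2 near 100% for most drugs).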
row,SMILES,percent growth inhibition of drug alone [%]
1,CCCCCC[C@H]1C(=O)O[C@H](C)[C@H](NC(=O)c2cccc(NC=O)c2O)C(=O)O[C@@H](C)[C@@H]1OC(=O)CC(C)C [Antimycin A],-93.3 ± 4.7

# Same assay, conditions: antibiotic (0.125x MIC): none (0.1% DMSO); 20 µM
row,SMILES,percent growth inhibition of drug alone [%]
1,CCCCCC[C@H]1C(=O)O[C@H](C)[C@H](NC(=O)c2cccc(NC=O)c2O)C(=O)O[C@@H](C)[C@@H]1OC(=O)CC(C)C [Antimycin A],-103 ± 4.7
